Results deposited as PubChem BioAssay AID1259308 (NCATS, 2017)

- Test: 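Candidate targets for better recombinant protein yield in mammalian cells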 (primary screen)
- Cells: human HEK293 embryonic kidney cells stably expressing firefly luciferase (HEK-CMV-Luc2-Hygro)
- Reagents: single siRNA against human genes, 0.8 pmol siRNA per well
- Duration: 72 h
- Measured: 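Reporter luminescence and viable-cell signal on separate replicate plates, given as percent of non-targeting control and median/MAD z-scores, plus per-cell luciferase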
- Direction: total luciferase, z-score and total luciferase, % of control: higher = more reporter protein produced
- Active means: 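Active when the median/MAD z-score for overall luciferase is greater than 3; a gene was taken forward for validation with new siRNAs if at least two of its three siRNAs passed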
- Meaning of the calls: active = raised luciferase; inactive = no rise
The whole screen tested about 59,000 reagents; this is an unselected part. About 1,510 of them (2.6%) were called active. 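Calls use total luciferase alone and ignore viability, so some active siRNAs may act by altering cell number.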 Entries without a mark were called inactive. The numbers tell different reagents against one gene apart. Further read-outs or replicates are left out here.

{"Gene": "RPS3A (ribosomal protein S3A)", "reagent": 1, "total luciferase, z-score": -2.61, "total luciferase, % of control": 29.9}
{"Gene": "RPS3A (ribosomal protein S3A)", "reagent": 2, "total luciferase, z-score": -2.52, "total luciferase, % of control": 31.8}
{"Gene": "RPS3A (ribosomal protein S3A)", "reagent": 3, "total luciferase, z-score": -2.45, "total luciferase, % of control": 33.1}
{"Gene": "CICP26 (capicua transcriptional repressor pseudogene 26)", "reagent": 1, "total luciferase, z-score": 0.174, "total luciferase, % of control": 85.3}
{"Gene": "CICP26 (capicua transcriptional repressor pseudogene 26)", "reagent": 2, "total luciferase, z-score": -0.115, "total luciferase, % of control": 79.6}
{"Gene": "CICP26 (capicua transcriptional repressor pseudogene 26)", "reagent": 3, "total luciferase, z-score": 0.887, "total luciferase, % of control": 99.5}
{"Gene": "ZBTB24 (zinc finger and BTB domain containing 24)", "reagent": 1, "total luciferase, z-score": -2.41, "total luciferase, % of control": 34}
{"Gene": "ZBTB24 (zinc finger and BTB domain containing 24)", "reagent": 2, "total luciferase, z-score": -0.321, "total luciferase, % of control": 75.5}
{"Gene": "ZBTB24 (zinc finger and BTB domain containing 24)", "reagent": 3, "total luciferase, z-score": 1.99, "total luciferase, % of control": 122}
{"Gene": "RNF182 (ring finger protein 182)", "reagent": 1, "total luciferase, z-score": 0.882, "total luciferase, % of control": 99.4}
{"Gene": "RNF182 (ring finger protein 182)", "reagent": 2, "total luciferase, z-score": -0.26, "total luciferase, % of control": 76.7}
{"Gene": "RNF182 (ring finger protein 182)", "reagent": 3, "total luciferase, z-score": -0.235, "total luciferase, % of control": 77.2}
{"Gene": "GRM3 (glutamate metabotropic receptor 3)", "reagent": 1, "total luciferase, z-score": -0.701, "total luciferase, % of control": 67.9}
{"Gene": "GRM3 (glutamate metabotropic receptor 3)", "reagent": 2, "total luciferase, z-score": 0.891, "total luciferase, % of control": 99.6}
{"Gene": "GRM3 (glutamate metabotropic receptor 3)", "reagent": 3, "total luciferase, z-score": -0.846, "total luciferase, % of control": 65.1}
{"Gene": "ANKS1A (ankyrin repeat and sterile alpha motif domain containing 1A)", "reagent": 1, "total luciferase, z-score": -0.224, "total luciferase, % of control": 77.4}
{"Gene": "ANKS1A (ankyrin repeat and sterile alpha motif domain containing 1A)", "reagent": 2, "total luciferase, z-score": -0.857, "total luciferase, % of control": 64.8}
{"Gene": "ANKS1A (ankyrin repeat and sterile alpha motif domain containing 1A)", "reagent": 3, "total luciferase, z-score": -0.516, "total luciferase, % of control": 71.6}
{"Gene": "PECR (peroxisomal trans-2-enoyl-CoA reductase)", "reagent": 1, "total luciferase, z-score": 0.971, "total luciferase, % of control": 101}
{"Gene": "PECR (peroxisomal trans-2-enoyl-CoA reductase)", "reagent": 2, "total luciferase, z-score": 0.199, "total luciferase, % of control": 85.9}
{"Gene": "PECR (peroxisomal trans-2-enoyl-CoA reductase)", "reagent": 3, "total luciferase, z-score": -0.421, "total luciferase, % of control": 73.5}
{"Gene": "RETREG2 (reticulophagy regulator family member 2)", "reagent": 1, "total luciferase, z-score": 0.584, "total luciferase, % of control": 93.5}
{"Gene": "RETREG2 (reticulophagy regulator family member 2)", "reagent": 2, "total luciferase, z-score": 0.679, "total luciferase, % of control": 95.4}
{"Gene": "RETREG2 (reticulophagy regulator family member 2)", "reagent": 3, "total luciferase, z-score": 1.33, "total luciferase, % of control": 108}
{"Gene": "H1-6 (H1.6 linker histone, cluster member)", "reagent": 1, "total luciferase, z-score": -0.0897, "total luciferase, % of control": 80.1}
{"Gene": "H1-6 (H1.6 linker histone, cluster member)", "reagent": 2, "total luciferase, z-score": -1.77, "total luciferase, % of control": 46.8}
{"Gene": "H1-6 (H1.6 linker histone, cluster member)", "reagent": 3, "total luciferase, z-score": 0.905, "total luciferase, % of control": 99.9}
{"Gene": "ATOH8 (atonal bHLH transcription factor 8)", "reagent": 1, "total luciferase, z-score": 0.781, "total luciferase, % of control": 97.4}
{"Gene": "ATOH8 (atonal bHLH transcription factor 8)", "reagent": 2, "total luciferase, z-score": 0.907, "total luciferase, % of control": 99.9}
{"Gene": "ATOH8 (atonal bHLH transcription factor 8)", "reagent": 3, "total luciferase, z-score": 0.399, "total luciferase, % of control": 89.8}
{"Gene": "LBHD1 (LBH domain containing 1)", "reagent": 1, "total luciferase, z-score": -0.274, "total luciferase, % of control": 76.4}
{"Gene": "LBHD1 (LBH domain containing 1)", "reagent": 2, "total luciferase, z-score": 0.703, "total luciferase, % of control": 95.9}
{"Gene": "LBHD1 (LBH domain containing 1)", "reagent": 3, "total luciferase, z-score": -0.627, "total luciferase, % of control": 69.4}
{"Gene": "SLC52A3", "reagent": 1, "total luciferase, z-score": -0.988, "total luciferase, % of control": 62.2}
{"Gene": "SLC52A3", "reagent": 2, "total luciferase, z-score": -1.97, "total luciferase, % of control": 42.8}
{"Gene": "SLC52A3", "reagent": 3, "total luciferase, z-score": -0.398, "total luciferase, % of control": 74}
{"Gene": "ZNF284 (zinc finger protein 284)", "reagent": 1, "total luciferase, z-score": -0.222, "total luciferase, % of control": 77.5}
{"Gene": "ZNF284 (zinc finger protein 284)", "reagent": 2, "total luciferase, z-score": -0.148, "total luciferase, % of control": 79}
{"Gene": "ZNF284 (zinc finger protein 284)", "reagent": 3, "total luciferase, z-score": -0.338, "total luciferase, % of control": 75.2}
{"Gene": "HPGDS (hematopoietic prostaglandin D synthase)", "reagent": 1, "total luciferase, z-score": -1.4, "total luciferase, % of control": 54.1}
{"Gene": "HPGDS (hematopoietic prostaglandin D synthase)", "reagent": 2, "total luciferase, z-score": -2.06, "total luciferase, % of control": 40.9}
{"Gene": "HPGDS (hematopoietic prostaglandin D synthase)", "reagent": 3, "total luciferase, z-score": 0.451, "total luciferase, % of control": 90.9}

2 entries already listed, sorted by “total luciferase, % of control”, highest first.
{"Gene": "ANKS1A (ankyrin repeat and sterile alpha motif domain containing 1A)", "reagent": 1, "total luciferase, z-score": -0.224, "total luciferase, % of control": 77.4}
{"Gene": "ANKS1A (ankyrin repeat and sterile alpha motif domain containing 1A)", "reagent": 2, "total luciferase, z-score": -0.857, "total luciferase, % of control": 64.8}
